Taken from: PubChem BioAssay AID504808 (Drosophila RNAi Screening Center, 2011)
The deposit covers about 21,000 reagents; below is a random part of those with a known target gene and a result. In the full data, 18 (0.084%) are marked active. 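Raw counts without plate normalisation, one of two replicates; the ratio scores behind the calls were not deposited.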 Entries without a mark were called inactive. A plus sign joins genes that one reagent is predicted to hit. Reagent sequences are not shown. Not given: the amount of reagent, the time to read-out.

Assay: 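Fly genes required to hold E2F transcription in check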 (primary screen)
Cells: Drosophila S2 cells
Knock-down reagent: long dsRNA against Drosophila genes
Measurement: 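Dual luciferase plate measurements; E2F-specific signal taken as firefly over Renilla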
Scale: E2F firefly: higher = more E2F reporter activity; Renilla normaliser: higher = more normaliser reporter signal
Active means: 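a knock-down counted as active when the firefly/Renilla E2F signal rose above 50%, a threshold chosen arbitrarily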

no.	gene	amplicon	E2F firefly, rep 1	Renilla normaliser, rep 1
1	LysD + LysC (retired record)	DRSC08674	1.06e5	4567
2	CG14795	DRSC18513	1.23e5	6398
3	Usp30 (Ubiquitin specific protease 30)	DRSC18265	55164	3360
4	CG11085	DRSC19374	79718	5057
5	Vajk4	DRSC06589	79474	3255
6	Vajk4	DRSC07003	1.51e5	5471
7	Pcif1 (Phosphorylated CTD-interacting factor 1)	DRSC11655	74007	4308
8	Lamtor1 (Late endosomal/lysosomal adaptor, MAPK and MTOR activator 1)	DRSC10183	1.33e5	6823
9	CG15208	DRSC19654	7828	768
10	Arl8 (ADP ribosylation factor-like 8)	DRSC16334	1.38e5	6322
11	DIP-eta (Dpr-interacting protein eta)	DRSC02342	1.60e5	4832
12	CG3224	DRSC18295	96913	5969
13	RpL23A (Ribosomal protein L23A)	DRSC08694	58068	3936
14	frma (fra mauro)	DRSC18297	8242	820
15	CG13622	DRSC14624	1.12e5	5600
16	CG12171	DRSC12200	1.40e5	6342
17	gsb (gooseberry)	DRSC04692	1.28e5	4852
18	CG10903	DRSC14281	1.19e5	7346
19	CG9449	DRSC11073	1.42e5	6951
20	sals (sarcomere length short)	DRSC14925	73908	3732
21	sals (sarcomere length short)	DRSC16113	1.41e5	6846
22	ND-B15 (NADH dehydrogenase (ubiquinone) B15 subunit)	DRSC06199	1.05e5	4228
23	CheA7a (Chemosensory protein A 7a)	DRSC17965	1.07e5	5144
24	CG32100	DRSC09725	1.22e5	5292
25	CG32100	DRSC10331	1.18e5	6398
26	CG1958	DRSC18196	1.02e5	5515
27	CG10638	DRSC09762	97849	4925
28	QC (Glutaminyl cyclase)	DRSC09736	75830	3499
29	Ubr1 (Ubr1 ubiquitin ligase)	DRSC20148	1.58e5	6002
30	Ugt304A1 (UDP-glycosyltransferase family 304 member A1)	DRSC15127	1.54e5	6942
31	Prosbeta2 (Proteasome beta2 subunit)	DRSC11257	51413	4020
32	su(r) (suppressor of rudimentary)	DRSC18705	7310	692
33	Or33a (Odorant receptor 33a)	DRSC03386	94748	3882
34	Pino (Pinocchio)	DRSC00038	1.41e5	5128
35	Pino (Pinocchio)	DRSC00662	83519	4286
36	dmrt93B (doublesex-Mab related 93B)	DRSC15865	1.56e5	7413
37	Octbeta2R (Octopamine beta2 receptor)	DRSC15350	1.34e5	6395
38	Octbeta2R (Octopamine beta2 receptor)	DRSC16165	1.42e5	7550
39	CG5984	DRSC15930	1.12e5	5794
40	CG13185	DRSC06310	3332	197
41	CG34195	DRSC06909	1.50e5	5351
42	Rtc1	DRSC20285	6899	748
43	CG32221	DRSC09638	83166	4505
44	CG31326	DRSC16532	1.04e5	4987
45	CG10063	DRSC09688	87577	3451
46	gzl (godzilla E3 ubiquitin protein ligase)	DRSC12517	74012	3672
47	CG31534 (retired record)	DRSC12141	90018	3594
48	CG31534 (retired record)	DRSC12289	1.33e5	6182
49	mdu (meduse)	DRSC19860	48701	3127
50	ebd1 (earthbound 1)	DRSC08565	87278	3580
51	CG8034	DRSC20076	1.31e5	5641
52	tRNA:Leu-CAA-2-3 (transfer RNA:Leucine-CAA 2-3)	DRSC13633	95522	2566
53	CG7943	DRSC16351	1879	1008
54	CG6769	DRSC20006	1.42e5	5966
55	CG12483	DRSC08278	1.02e5	4209

Copied from the listing, 9 entries:
no.	gene	amplicon	E2F firefly, rep 1	Renilla normaliser, rep 1
13	RpL23A (Ribosomal protein L23A)	DRSC08694	58068	3936
14	frma (fra mauro)	DRSC18297	8242	820
15	CG13622	DRSC14624	1.12e5	5600
16	CG12171	DRSC12200	1.40e5	6342
17	gsb (gooseberry)	DRSC04692	1.28e5	4852
18	CG10903	DRSC14281	1.19e5	7346
19	CG9449	DRSC11073	1.42e5	6951
20	sals (sarcomere length short)	DRSC14925	73908	3732
21	sals (sarcomere length short)	DRSC16113	1.41e5	6846

More records follow.
no.	gene	amplicon	E2F firefly, rep 1	Renilla normaliser, rep 1
56	BubR1 (Bub1-related kinase)	DRSC04838	82021	4661
57	aqrs (aquarius)	DRSC14724	1.31e5	7232
58	glob2 (globin 2)	DRSC12560	1.30e5	5962
59	CG4577	DRSC00658	1.57e5	6293
60	CG3330	DRSC15477	1729	920
61	Neto (Neuropilin and tolloid-like)	DRSC18982	59631	3004
62	Neto (Neuropilin and tolloid-like)	DRSC19503	7898	708
63	Neto (Neuropilin and tolloid-like)	DRSC19716	1.07e5	6571
64	Neto (Neuropilin and tolloid-like)	DRSC19717	1.22e5	6582
65	Rpn8 (Regulatory particle non-ATPase 8)	DRSC04624	73056	5422
66	Pmm2 (Phosphomannomutase type 2)	DRSC09780	1.38e5	7587
67	CG13409	DRSC14585	1.42e5	7362
68	5-HT1A (5-hydroxytryptamine (serotonin) receptor 1A)	DRSC05030	1.61e5	5175
69	betaTub60D (beta-Tubulin at 60D)	DRSC04673	1.12e5	4062
70	Mcm2 (Minichromosome maintenance 2)	DRSC16734	1.23e5	4624
71	CG7916	DRSC01901	88814	3779
72	Rab40	DRSC19820	1.18e5	6078
73	CG9406	DRSC04552	93213	3836
74	CG17097	DRSC02569	1.47e5	4487
75	CG3071	DRSC18526	1923	952
76	CG17931 + CG42446	DRSC15293	1.09e5	6091
77	CG31681	DRSC00107	1.29e5	5308
78	CG11596	DRSC18540	1685	988
79	CG10205	DRSC05979	77850	4419
80	CG7248	DRSC10788	1.18e5	7246
81	CG9411	DRSC20184	8838	680
82	CG2698	DRSC15447	1.16e5	5470
83	Abd-B (Abdominal B)	DRSC14098	1.14e5	5111
84	Abd-B (Abdominal B)	DRSC14337	1.18e5	6133
